# Laboratory results taken from US20230322735A1, “AZETIDINYL TRYPTAMINES AND METHODS OF TREATING PSYCHIATRIC DISORDERS” (priority 2020, published 2023).
# At least one structure is not confirmed: it was looked up by name or label, or the drawing left a doubt.
# Assay: Chemical stability of the product on storage and analysis
# Type: physicochemical
# Details: LCMS and HPLC with aqueous mobile phase
# Experimental: Note: The product 2 is unstable and should be stored frozen, protected from light, and under inert gas. If stored properly, stability has been confirmed by qNMR for at least 1 month.
# A mixture of 3-(2-(azetidin-1-yl)ethyl)-1H-indol-4-ol (2, 50 mg, 231.18 μmol, 1 eq) and pyridine (23.77 mg, 300.54 μmol, 24.26 μL, 1.3 eq) in DCM (1 mL) was cooled to 0° C. Then acetic anhydride (25.96 mg, 254.30 μmol, 23.82 μL, 1.1 eq) was added dropwise at 0° C. and the resulting mixture was stirred at 25° C. for 1 h. At this time, the solvent was removed and the residue was purified by prep-HPLC (column=Waters Xbridge BEH C18 (100*30 mm, 10 μm); mobile phase=water(NH4HCO3)-ACN, B %=5%-40%; 10 min run time) to provide 3-(2-(azetidin-1-yl)ethyl)-1H-indol-4-yl acetate (4) as a white solid (20 mg, 33% yield). ^1H NMR (400 MHz, DMSO-d6) δ 11.01 (br s, 1H), 7.22 (d, J=8.0 Hz, 1H), 7.11 (d, J=1.6 Hz, 1H), 7.02 (t, J=8.0 Hz, 1H), 6.64 (d, J=7.6 Hz, 1H), 3.09 (t, J=6.8 Hz, 4H), 2.57-2.54 (m, 4H), 2.32 (s, 3H), 1.96-1.90 (m, 2H); LCMS (RT=0.983 min, MS calc.: 258.14, [M+H]+=259.1).
smiles,measurement,value
"CC(=O)Oc1cccc2[nH]cc(CCN3CCC3)c12 [Compound 4, 3-(2-(azetidin-1-yl)ethyl)-1H-indol-4-yl acetate]",susceptibility to hydrolysis,susceptible to hydrolysis
